What all share (test): EMSA
Data set [1] concerns the target T1, ECT2-ΔSH del376-386 (Arabidopsis thaliana) (UniProt Q9LJE5).
T1 sequence (looked up): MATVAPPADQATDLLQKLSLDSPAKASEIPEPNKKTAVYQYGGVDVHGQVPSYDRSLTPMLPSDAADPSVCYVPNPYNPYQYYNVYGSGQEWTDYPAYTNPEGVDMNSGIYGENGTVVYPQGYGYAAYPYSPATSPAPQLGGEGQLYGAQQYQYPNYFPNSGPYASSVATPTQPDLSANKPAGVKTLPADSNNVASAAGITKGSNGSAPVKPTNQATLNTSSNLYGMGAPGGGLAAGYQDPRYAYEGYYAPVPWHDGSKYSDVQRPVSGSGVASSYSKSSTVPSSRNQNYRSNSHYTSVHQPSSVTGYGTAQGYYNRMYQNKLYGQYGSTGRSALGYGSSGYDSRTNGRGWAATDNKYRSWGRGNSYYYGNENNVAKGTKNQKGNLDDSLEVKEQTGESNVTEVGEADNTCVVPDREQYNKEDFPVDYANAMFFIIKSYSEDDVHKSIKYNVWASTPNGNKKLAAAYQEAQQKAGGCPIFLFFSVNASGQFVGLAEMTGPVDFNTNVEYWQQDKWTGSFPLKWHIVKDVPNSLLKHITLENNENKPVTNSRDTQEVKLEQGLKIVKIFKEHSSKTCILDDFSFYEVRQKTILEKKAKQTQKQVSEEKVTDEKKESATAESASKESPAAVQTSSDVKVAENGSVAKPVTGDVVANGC
The following applies: complex visible, no doublet, up to 1000 nM; m6A at position 25; thiol-protected 3' bases (*G*U); EMSA: 10 nM FAM-RNA; binding buffer 10 mM HEPES pH 8.0, 50 mM KCl, 1 mM EDTA, 0.05% Triton X-100, 5% glycerol, 10 µg/mL salmon DNA, 1 mM DTT, 40 U/mL RNasin; recombinant protein; residues 1-667; protein details: N-terminal His-SUMO; label: 5' FAM. For orientation: In EMSA bound probe runs differently from free probe, usually more slowly.

Data set [2] concerns the target T2, ECT2-Δα4 del591-627 (Arabidopsis thaliana) (UniProt Q9LJE5).
T2 sequence (looked up): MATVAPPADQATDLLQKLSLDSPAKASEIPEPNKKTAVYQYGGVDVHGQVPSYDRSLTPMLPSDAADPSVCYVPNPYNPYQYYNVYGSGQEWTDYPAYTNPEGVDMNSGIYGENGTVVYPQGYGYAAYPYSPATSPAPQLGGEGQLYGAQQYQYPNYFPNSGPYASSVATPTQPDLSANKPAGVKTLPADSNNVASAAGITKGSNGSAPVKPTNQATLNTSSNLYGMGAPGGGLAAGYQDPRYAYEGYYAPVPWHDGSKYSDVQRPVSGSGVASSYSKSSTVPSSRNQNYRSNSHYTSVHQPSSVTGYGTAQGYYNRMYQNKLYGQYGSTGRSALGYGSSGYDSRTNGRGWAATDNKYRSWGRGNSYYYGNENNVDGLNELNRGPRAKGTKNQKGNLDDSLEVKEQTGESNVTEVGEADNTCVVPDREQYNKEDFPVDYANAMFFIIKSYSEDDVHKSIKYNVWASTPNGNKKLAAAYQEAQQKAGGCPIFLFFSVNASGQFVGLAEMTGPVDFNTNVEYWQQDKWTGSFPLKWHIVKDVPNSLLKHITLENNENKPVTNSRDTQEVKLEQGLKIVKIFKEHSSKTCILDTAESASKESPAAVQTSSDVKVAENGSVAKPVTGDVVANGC
The following applies: no visible stable complex, up to 1000 nM; m6A at position 25; thiol-protected 3' bases (*G*U); EMSA: 10 nM FAM-RNA; binding buffer 10 mM HEPES pH 8.0, 50 mM KCl, 1 mM EDTA, 0.05% Triton X-100, 5% glycerol, 10 µg/mL salmon DNA, 1 mM DTT, 40 U/mL RNasin; recombinant protein; residues 1-667; protein details: N-terminal His-SUMO; label: 5' FAM.

Data set [3] concerns the target T3, ECT2-108 YTH mut W464A,W521A,W526A (Arabidopsis thaliana) (UniProt Q9LJE5).
T3 sequence (looked up): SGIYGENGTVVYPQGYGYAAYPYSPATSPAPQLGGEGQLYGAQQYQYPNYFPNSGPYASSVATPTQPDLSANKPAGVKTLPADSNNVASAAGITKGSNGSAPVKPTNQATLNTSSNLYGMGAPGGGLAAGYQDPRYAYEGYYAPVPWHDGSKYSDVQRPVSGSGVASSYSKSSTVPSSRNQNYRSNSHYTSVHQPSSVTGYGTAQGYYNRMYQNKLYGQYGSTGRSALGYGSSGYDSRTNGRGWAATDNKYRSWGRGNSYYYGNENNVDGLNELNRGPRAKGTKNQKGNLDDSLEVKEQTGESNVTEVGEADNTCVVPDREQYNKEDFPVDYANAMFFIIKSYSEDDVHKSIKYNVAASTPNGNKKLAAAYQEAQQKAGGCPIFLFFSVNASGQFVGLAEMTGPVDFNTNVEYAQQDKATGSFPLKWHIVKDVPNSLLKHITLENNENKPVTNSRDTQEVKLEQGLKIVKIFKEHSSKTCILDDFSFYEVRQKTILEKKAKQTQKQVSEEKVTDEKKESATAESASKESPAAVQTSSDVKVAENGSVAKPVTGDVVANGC
The following applies: up to 500 nM; thiol-protected 3' bases (*G*U); EMSA: 10 nM FAM-RNA; binding buffer 10 mM HEPES pH 8.0, 50 mM KCl, 1 mM EDTA, 0.05% Triton X-100, 5% glycerol, 10 µg/mL salmon DNA, 1 mM DTT, 40 U/mL RNasin; recombinant protein; residues 108-667; protein details: N-terminal His-SUMO; label: 5' FAM.

Data set [4] concerns the target T4, ECT2-303 YTH mut W464A,W521A,W526A (Arabidopsis thaliana) (UniProt Q9LJE5).
T4 sequence (looked up): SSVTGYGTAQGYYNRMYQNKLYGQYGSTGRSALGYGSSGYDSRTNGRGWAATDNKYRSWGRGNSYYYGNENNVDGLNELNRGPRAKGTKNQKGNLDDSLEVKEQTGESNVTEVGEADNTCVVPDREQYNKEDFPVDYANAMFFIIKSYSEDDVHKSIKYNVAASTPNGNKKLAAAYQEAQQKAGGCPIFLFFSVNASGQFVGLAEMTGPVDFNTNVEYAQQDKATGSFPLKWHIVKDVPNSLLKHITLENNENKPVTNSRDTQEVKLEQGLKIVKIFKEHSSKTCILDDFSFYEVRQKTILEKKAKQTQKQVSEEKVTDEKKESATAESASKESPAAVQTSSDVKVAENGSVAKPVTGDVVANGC
The following applies: up to 500 nM; thiol-protected 3' bases (*G*U); EMSA: 10 nM FAM-RNA; binding buffer 10 mM HEPES pH 8.0, 50 mM KCl, 1 mM EDTA, 0.05% Triton X-100, 5% glycerol, 10 µg/mL salmon DNA, 1 mM DTT, 40 U/mL RNasin; recombinant protein; residues 303-667; protein details: N-terminal His-SUMO; label: 5' FAM.

For some of these results: A negative result means that nothing was seen under these conditions. For some of these results: At least one verdict rests on a figure or table, not on a statement of the authors. Protein sequences can lack the tags named with them. For some of these results: A weaker result is weaker than the reference pair of the same experiment.

On to “AUGGGCCGUUCAUCUGCUAAAAGGACUGCUUUUGGGGCUUGU [Probe I m6A]”, for which the binding result in data set [1] and in data set [2] was “binds more weakly” in each case.
With “AUGGGCCGUUCAUCUGCUAAAAGGACUGCUUUUGGGGCUUGU [Probe I (A)]”, the binding result in data set [3] and in data set [4] was “no binding” throughout.

Values taken from PMC11404569.
